Results are given in words; binding and its absence hold for the method and conditions named. Some entries that bind do so weakly or less than the wild type.
Assays:
[1] = molecular target: cynomolgus SIRPα (cynomolgus); test: FACS on CHO-K1 cells expressing cynomolgus SIRPα
[2] = molecular target: cynomolgus SIRPα (cynomolgus); test: FACS on CHO-K1 cells expressing cynomolgus SIRPα, anti-hFc secondary antibody

binding [1]: binds
binding [2]: binds
B1: LM-101 (antibody, V domains shown)
VH: QVQLVQSGAEVKKPGSSVKVSCKASGYTFTSNYIHWVRQAPGQGLEWMGWIYPGDADTNYNQKFQGRVTLTADKSTSTAYMELSSLRSEDTAVYYCAINYGGIWFAYWGQGTLVTVSS
VL: DIQMTQSPSSLSASVGDRVTITCQASQDIGNKLIWYQQKPGKAPKLLIYYVTNLPGGVPSRFSGSGSGTDFTLTISSLQPEDFATYYCLQYKQNPLTFGQGTKLEIK
